Measured values: article PMC4119396
Results are given in words; binding and its absence hold for the method and conditions named. In cells and extracts the contact can be indirect. Some binding calls cover weakened binding; strength is not graded here.

Sequences of proteins named here, by UniProt entry; tags and fusion partners are left off.
UniProt O54943: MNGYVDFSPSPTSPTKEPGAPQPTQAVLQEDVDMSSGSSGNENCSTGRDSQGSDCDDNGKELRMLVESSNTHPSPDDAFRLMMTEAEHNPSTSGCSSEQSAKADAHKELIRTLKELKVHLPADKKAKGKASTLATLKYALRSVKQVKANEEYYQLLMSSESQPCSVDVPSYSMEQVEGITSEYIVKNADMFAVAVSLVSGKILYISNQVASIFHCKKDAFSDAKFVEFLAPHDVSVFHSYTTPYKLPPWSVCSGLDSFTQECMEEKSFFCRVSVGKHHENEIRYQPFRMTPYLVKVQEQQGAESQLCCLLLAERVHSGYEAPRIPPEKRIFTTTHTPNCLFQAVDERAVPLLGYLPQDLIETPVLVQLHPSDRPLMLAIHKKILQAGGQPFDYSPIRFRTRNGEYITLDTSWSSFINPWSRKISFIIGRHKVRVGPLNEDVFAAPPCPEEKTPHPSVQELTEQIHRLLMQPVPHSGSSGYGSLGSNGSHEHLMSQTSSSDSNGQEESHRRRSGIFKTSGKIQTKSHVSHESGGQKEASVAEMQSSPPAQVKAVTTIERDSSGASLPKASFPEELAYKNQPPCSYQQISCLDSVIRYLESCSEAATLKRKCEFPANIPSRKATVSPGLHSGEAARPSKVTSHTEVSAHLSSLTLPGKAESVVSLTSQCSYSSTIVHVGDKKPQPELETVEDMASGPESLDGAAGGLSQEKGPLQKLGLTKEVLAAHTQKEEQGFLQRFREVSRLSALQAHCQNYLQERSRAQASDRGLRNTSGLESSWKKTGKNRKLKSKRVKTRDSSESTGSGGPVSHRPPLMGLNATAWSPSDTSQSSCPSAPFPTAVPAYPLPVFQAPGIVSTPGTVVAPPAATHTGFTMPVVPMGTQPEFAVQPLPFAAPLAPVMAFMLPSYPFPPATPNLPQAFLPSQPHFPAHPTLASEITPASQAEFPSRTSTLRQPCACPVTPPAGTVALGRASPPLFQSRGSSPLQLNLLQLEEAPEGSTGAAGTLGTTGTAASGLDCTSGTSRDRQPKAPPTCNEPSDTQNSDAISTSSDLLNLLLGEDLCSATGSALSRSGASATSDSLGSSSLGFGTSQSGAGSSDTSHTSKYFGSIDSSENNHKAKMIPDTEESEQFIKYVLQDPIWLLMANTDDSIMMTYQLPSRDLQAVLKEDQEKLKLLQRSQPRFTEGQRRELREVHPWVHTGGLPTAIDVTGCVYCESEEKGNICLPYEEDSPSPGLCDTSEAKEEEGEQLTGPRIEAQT
UniProt P70658: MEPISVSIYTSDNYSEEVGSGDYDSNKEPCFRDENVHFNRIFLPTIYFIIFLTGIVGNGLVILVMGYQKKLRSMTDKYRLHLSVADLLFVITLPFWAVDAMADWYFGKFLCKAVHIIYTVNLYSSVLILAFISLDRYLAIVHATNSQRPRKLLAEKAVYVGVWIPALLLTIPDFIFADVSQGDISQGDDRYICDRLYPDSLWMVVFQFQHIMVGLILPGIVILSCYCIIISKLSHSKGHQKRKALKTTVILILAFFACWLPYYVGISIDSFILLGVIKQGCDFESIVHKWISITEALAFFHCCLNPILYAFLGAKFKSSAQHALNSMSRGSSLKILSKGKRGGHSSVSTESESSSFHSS

Target: Period 2 (mouse (endogenous in bone-marrow EPCs)) (UniProt O54943)
Experiment: co-IP; lysates of WT mouse EPCs; rabbit anti-per2 or CXCR4 antibody, protein A and G plus-agarose beads; western blot with CXCR4 or per2 antibodies

binding: binds
Substance: C-X-C chemokine receptor type 4 (from UniProt P70658 1-359)
